Assay results as given in publication PMC3877065, “Ligand Recognition by the TPR Domain of the Import Factor Toc64 from Arabidopsis thaliana” (PLoS ONE, 2013).
Results are given in words; binding and its absence hold for the method and conditions named. Where a sequence is shown, tags or fusion partners need not be part of it.

Legend:
[1] = biological target: TPR domain of AtToc64 with a C-terminal hexa-histidine tag (AtToc64_TPR-H6) (Arabidopsis thaliana) (UniProt Q9LVH5); experiment: SEC; Superdex 75 prep grade, 25 mM Hepes, 100 mM KCl, pH 7.3; 2 mL of protein at 8 mg/mL; calibrated with gel filtration standards; both purified
[2] = biological target: TPR domain of AtToc64 with a C-terminal hexa-histidine tag (AtToc64_TPR-H6) (Arabidopsis thaliana) (UniProt Q9LVH5); experiment: AUC; sedimentation velocity, 70 µM protein alone (also with the Hsp70 or Hsp90 octapeptide), 25 mM Hepes, 100 mM KCl, pH 7.3, 20°C, 60,000 rpm, c(s) analysis in SEDFIT; both purified

B1: TPR domain of AtToc64 with a C-terminal hexa-histidine tag (AtToc64_TPR-H6) (domain or fragment, UniProt Q9LVH5 474-589)
chain: AEIAKEKGNQAFKEKLWQKAIGLYSEAIKLSDNNATYYSNRAAAYLELGGFLQAEEDCTKAITLDKKNVKAYLRRGTAREMLGDCKGAIEDFRYALVLEPNNKRASLSAERLRKFQ
Question: For B1, which binding [1] is on record?
Answer: no binding (tested: 8 mg/mL applied)

Question: And the binding [2]?
Answer: no binding (tested: 70 µM)
